The list is a part of this screen's results and no random one: it gathers tests that were run many times, whatever their T/C, doses with no T/C, and many T/C values between a quarter and a half above the control. Other doses and runs of a compound stand elsewhere. T/C gives the treated animals as a percentage of the vehicle group. Some doses have a count of surviving animals in place of a T/C: the source files T/C as zero there, which appears to mark a toxic dose or a test without result, not a measured value. Some survivor counts are full or nearly so, which does not show that the dose was tolerated: survival well below the control is almost never listed, so the zero probably covers shortened survival too. Counts of survivors are from the toxicity check (mostly the fifth day) where no day follows; animals may have died later. Schedules are NCI's codes, taken here to give the interval after Q, in days (D) or hours (H), and the number of doses after X. Some entries hold several experiments; their values stand side by side, smallest first. Some schedule codes hold Z or #, which are not explained here. For survival time, the PubChem record calls one and a half times the control and up active, and a quarter to a half above the control has no call in these data; cut-offs in other NCI protocols can differ. Some T/C values carry the count of animals alive at the toxicity check (mostly the fifth day); without a count, all were alive then.
System: L1210 leukemia ip in BDF1 mice, survival T/C
Assay: NCI In Vivo Anticancer Drug Screen. Data for tumor model L1210 Leukemia (intraperitoneal) in B6D2F1 (BDF1) mice
Conditions: higher T/C = longer survival
[1] = T/C endpoint: mean survival time, dose: 200.0 mg/kg/injection, schedule: Q01DX001 (ip), vehicle: carboxymethylcellulose (CMC)

Cc1ccc(NC(=O)CBr)cc1
survivor count (T/C endpoint: mean survival time, dose: 100.0 mg/kg/injection, schedule: Q01DX001 (ip), vehicle: other): 1 of 4
survivor count (T/C endpoint: mean survival time, dose: 200.0 mg/kg/injection, schedule: Q01DX001 (ip), vehicle: other): 0 of 4
survivor count (T/C endpoint: mean survival time, dose: 400.0 mg/kg/injection, schedule: Q01DX001 (ip), vehicle: other): 0 of 4

CN1C2CCCCC1C1CCCCC2[N+]1(C)C
survivor count (T/C endpoint: mean survival time, dose: 150.0 mg/kg/injection, schedule: Q01DX001 (ip), vehicle: saline): 0 of 6
survivor count (T/C endpoint: mean survival time, dose: 300.0 mg/kg/injection, schedule: Q01DX001 (ip), vehicle: saline): 0 of 6

N=c1ccn2c(n1)OC1C(OP(=O)(O)O)C(CO)OC12 (stereo not given)
T/C (T/C endpoint: mean survival time, dose: 10.0 mg/kg/injection, schedule: Q01DX009 (ip), vehicle: saline): 128 % of control
T/C (T/C endpoint: mean survival time, dose: 20.0 mg/kg/injection, schedule: Q01DX009 (ip), vehicle: saline): 149 % of control
T/C (T/C endpoint: median survival time, dose: 12.5 mg/kg/injection, schedule: Q03HX024 (oral), vehicle: water): 127 % of control
T/C (T/C endpoint: median survival time, dose: 25.0 mg/kg/injection, schedule: Q01DX009 (oral), vehicle: water): 133 % of control
T/C (T/C endpoint: median survival time, dose: 50.0 mg/kg/injection, schedule: Q03HX008 (oral), vehicle: water): 138 % of control
T/C (T/C endpoint: median survival time, dose: 100.0 mg/kg/injection, schedule: Q01DX009 (oral), vehicle: saline): 127 % of control
T/C (T/C endpoint: median survival time, dose: 100.0 mg/kg/injection, schedule: Q03HX008 (oral), vehicle: water): 144 % of control
T/C (T/C endpoint: median survival time, dose: 200.0 mg/kg/injection, schedule: Q01DX009 (oral), vehicle: saline): 145 % of control
T/C (T/C endpoint: median survival time, dose: 800.0 mg/kg/injection, schedule: Q01DX001 (oral), vehicle: saline): 127 % of control
T/C (T/C endpoint: median survival time, dose: 800.0 mg/kg/injection, schedule: Q01DX001 (oral), vehicle: water): 127 % of control
survivor count (T/C endpoint: median survival time, dose: 800.0 mg/kg/injection, schedule: Q03HX008 (oral), vehicle: water): 5 of 8
T/C (T/C endpoint: median survival time, dose: 1600.0 mg/kg/injection, schedule: Q01DX001 (oral), vehicle: water): 144 % of control
survivor count (T/C endpoint: median survival time, dose: 1600.0 mg/kg/injection, schedule: Q01DX009 (oral), vehicle: saline): 10 of 10
T/C (T/C endpoint: median survival time, dose: 3200.0 mg/kg/injection, schedule: Q01DX001 (oral), vehicle: water): 144 % of control [7 of 8 alive]

CC(C)(C)CC(C)(C)c1ccc(OCCOCCSC(=N)N)cc1
survivor count [1]: 2 of 4
survivor count (T/C endpoint: mean survival time, dose: 400.0 mg/kg/injection, schedule: Q01DX001 (ip), vehicle: carboxymethylcellulose (CMC)): 0 of 4

Cc1c2ccncc2c(C)c2c1sc1ccccc12
T/C (T/C endpoint: mean survival time, dose: 40.0 mg/kg/injection, schedule: Q01DX009 (ip), vehicle: Klucel (hydroxypropylcellulose) (HPC)): 129 % of control
T/C (T/C endpoint: mean survival time, dose: 40.0 mg/kg/injection, schedule: Q01DX009 (ip), vehicle: other): 144 % of control
T/C (T/C endpoint: mean survival time, dose: 80.0 mg/kg/injection, schedule: Q01DX009 (ip), vehicle: Klucel (hydroxypropylcellulose) (HPC)): 125 % of control
T/C (T/C endpoint: mean survival time, dose: 160.0 mg/kg/injection, schedule: Q01DX009 (ip), vehicle: Klucel (hydroxypropylcellulose) (HPC)): 132 % of control
T/C (T/C endpoint: mean survival time, dose: 160.0 mg/kg/injection, schedule: Q01DX009 (ip), vehicle: other): 145 % of control
T/C (T/C endpoint: mean survival time, dose: 250.0 mg/kg/injection, schedule: Q01DX001 (ip), vehicle: other): 132 % of control
survivor count (T/C endpoint: mean survival time, dose: 1000.0 mg/kg/injection, schedule: Q01DX001 (ip), vehicle: other): 0 of 6

CCC[CH2][Sn]([CH2]C)([CH2]C)[O]C(C)=O
survivor count (T/C endpoint: mean survival time, dose: 20.0 mg/kg/injection, schedule: Q01DX001 (ip), vehicle: saline with Tween-80): 0 of 6
survivor count (T/C endpoint: mean survival time, dose: 100.0 mg/kg/injection, schedule: Q01DX001 (ip), vehicle: saline with Tween-80): 0 of 6
survivor count (T/C endpoint: mean survival time, dose: 200.0 mg/kg/injection, schedule: Q01DX001 (ip), vehicle: saline with Tween-80): 0 of 6
survivor count (T/C endpoint: mean survival time, dose: 400.0 mg/kg/injection, schedule: Q01DX001 (ip), vehicle: saline with Tween-80): 0 of 6

O=C1OC(c2cccc(Cl)c2)=N/C1=C\C=C/c1ccccc1
survivor count [1]: 6 of 6
survivor count (T/C endpoint: mean survival time, dose: 400.0 mg/kg/injection, schedule: Q01DX009 (ip), vehicle: carboxymethylcellulose (CMC)): 3 of 3 and 6 of 6

Cc1cc(Nc2ccc(C)c(Cl)c2)nc(N)n1
survivor count (T/C endpoint: mean survival time, dose: 200.0 mg/kg/injection, schedule: Q01DX Z (ip), vehicle: methylcellulose (MC)): 6 of 6
